In the supplement of paper PMC6078165:

System: BT20
Experiment: relative JC-1 red fluorescence (viability) vs pre-drug, coculture with fibroblast (fraction); higher = more viable cancer cells
Experimental: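 JC-1 labelled TNBC cells cocultured 1:1 (1,500 cells each) with CellTrace Violet stained primary or stromal fibroblasts in 384-well plates in FluoroBrite medium, treated with one of 42 anticancer drugs at 0.1, 1, 10 or 100 uM. JC-1 red fluorescence (mitochondrial integrity in cancer cells only) was read by plate reader every 8 h for 72 h. Values are normalised to each well's pre-drug value. The stock of one drug was tenfold lower, so its dose labels may be too high.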

O=C(O)C1(C(=O)O)CCC1.[NH2-].[NH2-].[Pt+2] [Carboplatin]
relative JC-1 red fluorescence
Details | 8 h | 16 h | 24 h | 32 h | 40 h | 48 h | 56 h | 64 h | 72 h
10 µM, coculture fibroblast: C12385 | 0.895 | 0.783 | 0.7233 | 0.655 | 0.603 | 0.57 | 0.538 | 0.51333 | 0.487
10 µM, coculture fibroblast: H6013 | 0.96193 | 0.869 | 0.854 | 0.82 | 0.777 | 0.761 | 0.757 | 0.745 | 0.731
10 µM, coculture fibroblast: H6019 | 0.886 | 0.808 | 0.766 | 0.714 | 0.675 | 0.661 | 0.633 | 0.596 | 0.568
10 µM, coculture fibroblast: H6076 | 0.859 | 0.897 | 0.812 | 0.783 | 0.753 | 0.728 | 0.71 | 0.709 | 0.691
10 µM, coculture fibroblast: H6231 | 0.857 | 0.928 | 0.8 | 0.7465 | 0.687 | 0.638 | 0.591 | 0.554 | 0.517
10 µM, coculture fibroblast: HADF | 0.807 | 0.91 | 0.81 | 0.786 | 0.739 | 0.682 | 0.652 | 0.623 | 0.584
10 µM, coculture fibroblast: HCFa | 0.926 | 0.864 | 0.788 | 0.829 | 0.766 | 0.679 | 0.777 | 0.75 | 0.703
10 µM, coculture fibroblast: HCPF | 0.8 | 0.9259 | 0.8287 | 0.777 | 0.7252 | 0.6734 | 0.626 | 0.6098 | 0.5642
10 µM, coculture fibroblast: HHSteC | 0.91967 | 0.8201 | 0.799 | 0.723 | 0.674 | 0.644 | 0.623 | 0.602 | 0.564
10 µM, coculture fibroblast: HMF | 0.858 | 0.907 | 0.815 | 0.772 | 0.719 | 0.66 | 0.633 | 0.594 | 0.553
10 µM, coculture fibroblast: HPFa | 0.92 | 0.8433 | 0.826 | 0.744 | 0.693 | 0.638 | 0.605 | 0.561 | 0.502
10 µM, coculture fibroblast: HUF | 0.8948 | 0.78 | 0.737 | 0.66 | 0.606 | 0.577 | 0.553 | 0.531 | 0.502
10 µM, coculture fibroblast: Hs5 | 0.738 | 0.869 | 0.911 | 0.864 | 0.834 | 0.803 | 0.776 | 0.749 | 0.724
10 µM, coculture fibroblast: Hs27A | 0.899 | 0.954 | 0.873 | 0.877 | 0.8204 | 0.803 | 0.781 | 0.749 | 0.7
10 µM, coculture fibroblast: Hs343T | 0.92 | 0.887 | 0.763 | 0.693 | 0.635 | 0.592 | 0.541 | 0.523 | 0.479
10 µM, coculture fibroblast: WS1 | 0.891 | 0.782 | 0.729 | 0.664 | 0.6 | 0.572 | 0.542 | 0.508 | 0.492
100 µM, coculture fibroblast: C12385 | 0.85982 | 0.8107 | 0.787 | 0.726 | 0.671 | 0.632 | 0.603 | 0.572 | 0.541
100 µM, coculture fibroblast: H6013 | 0.831 | 0.81 | 0.832 | 0.779 | 0.813 | 0.742 | 0.869 | 0.906 | 0.888
100 µM, coculture fibroblast: H6019 | 0.852 | 0.803 | 0.802 | 0.752 | 0.721 | 0.703 | 0.654 | 0.639 | 0.629
100 µM, coculture fibroblast: H6076 | 0.948 | 0.88 | 0.8279 | 0.788 | 0.764 | 0.734 | 0.734 | 0.731 | 0.709
100 µM, coculture fibroblast: H6231 | 0.945 | 0.859 | 0.774 | 0.707 | 0.641 | 0.589 | 0.55 | 0.521 | 0.496
100 µM, coculture fibroblast: HADF | 0.931 | 0.884 | 0.845 | 0.765 | 0.749 | 0.83 | 0.725 | 0.762 | 0.795
100 µM, coculture fibroblast: HCFa | 0.931 | 0.924 | 0.888 | 0.818 | 0.742 | 0.733 | 0.676 | 0.731 | 0.756
100 µM, coculture fibroblast: HCPF | 0.95739 | 0.869 | 0.80716 | 0.76 | 0.7094 | 0.6711 | 0.6207 | 0.599 | 0.568
100 µM, coculture fibroblast: HHSteC | 0.89143 | 0.863 | 0.8509 | 0.791 | 0.747 | 0.711 | 0.691 | 0.674 | 0.65
100 µM, coculture fibroblast: HMF | 0.949 | 0.843 | 0.753 | 0.693 | 0.635 | 0.563 | 0.501 | 0.466 | 0.427
100 µM, coculture fibroblast: HPFa | 0.918 | 0.92 | 0.79 | 0.865 | 0.841 | 0.802 | 0.784 | 0.761 | 0.721
100 µM, coculture fibroblast: HUF | 0.877 | 0.804 | 0.782 | 0.695 | 0.633 | 0.58 | 0.552 | 0.54 | 0.524
100 µM, coculture fibroblast: Hs5 | 0.9928 | 0.903 | 0.8366 | 0.79603 | 0.757 | 0.692 | 0.6514 | 0.643 | 0.613
100 µM, coculture fibroblast: Hs27A | 0.913 | 0.9786 | 0.965 | 0.9157 | 0.8941 | 0.9102 | 0.927 | 0.9407 | 0.9
100 µM, coculture fibroblast: Hs343T | 0.989 | 0.874 | 0.767 | 0.674 | 0.567 | 0.469 | 0.368 | 0.313 | 0.256
100 µM, coculture fibroblast: WS1 | 0.8312 | 0.785 | 0.762 | 0.681 | 0.617 | 0.576 | 0.535 | 0.525 | 0.5068

Values are relative to the signal before dosing, not to a vehicle control; the signal also falls without drug.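 Fibroblast labels denote human fibroblasts, mainly primary ones from uterus (C12385, HUF), lung (H6013), bone (Hs27A), adrenal (HADF) and skin (WS1), plus mammary HMF and breast cancer-associated Hs343T. Cancer cells are basal-like or mesenchymal-like triple-negative breast cancer lines. A hit is a response shift exceeding 3x replicate standard deviation. The tissue of the other fibroblasts is not given here.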
